# PubChem BioAssay AID1259308 | NCATS | 2017
# Screen: 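Genes whose loss raises luciferase production in HEK293 cells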 (primary screen)
# System: human HEK293 embryonic kidney cells stably expressing firefly luciferase (HEK-CMV-Luc2-Hygro)
# Knock-down reagent: single siRNA against human genes, 0.8 pmol siRNA per well
# Duration: 72 h
# Detection: 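Reporter luminescence and viable-cell signal on separate replicate plates, given as percent of non-targeting control and median/MAD z-scores, plus per-cell luciferase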
# Direction: total luciferase, z-score and total luciferase, % of control: higher = more reporter protein produced
# Rule for the call: 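An siRNA counts as active if its total luciferase robust z-score exceeds 3; genes with two or more such siRNAs out of three were retested with fresh siRNAs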
# Meaning of the calls: active = raised luciferase; inactive = no rise
# The deposit covers about 59,000 reagents; below is a part drawn at random. In the full data, about 1,510 (2.6%) are marked active. 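Calls use total luciferase alone and ignore viability, so some active siRNAs may act by altering cell number.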 A number with no mark means an inactive call. Reagents against one gene are numbered here. Not all columns of the deposit are shown. Reagent sequences are not shown.
Gene,siRNA no.,"total luciferase, z-score","total luciferase, % of control"
APCS (GeneID 325),1,0.0273,82.4
APCS (GeneID 325),2,1.45,111
APCS (GeneID 325),3,-0.806,65.9
FRMD6-AS1 (GeneID 145438),1,0.518,92.2
FRMD6-AS1 (GeneID 145438),2,-0.553,70.9
FRMD6-AS1 (GeneID 145438),3,0.52,92.2
C12orf71 (GeneID 728858),1,-0.361,74.7
C12orf71 (GeneID 728858),2,0.315,88.2
C12orf71 (GeneID 728858),3,-0.254,76.8
PLAAT5 (GeneID 117245),1,0.984,101
PLAAT5 (GeneID 117245),2,0.686,95.5
PLAAT5 (GeneID 117245),3,2.97,141
TREX2 (GeneID 11219),1,-0.713,67.7
TREX2 (GeneID 11219),2,-0.0304,81.3
TREX2 (GeneID 11219),3,-0.394,74.1
HFM1 (GeneID 164045),1,-0.0217,81.5
HFM1 (GeneID 164045),2,-0.103,79.8
HFM1 (GeneID 164045),3,0.47,91.2
FCHO2 (GeneID 115548),1,1.65,115
FCHO2 (GeneID 115548),2,0.946,101
FCHO2 (GeneID 115548),3,0.527,92.4
OPTN (GeneID 10133),1,-0.011,81.7
OPTN (GeneID 10133),2,0.126,84.4
OPTN (GeneID 10133),3,-0.198,78
AP3M1 (GeneID 26985),1,0.73,96.4
AP3M1 (GeneID 26985),2,-0.206,77.8
AP3M1 (GeneID 26985),3,-1.26,56.9
NCOR2 (GeneID 9612),1,-1.64,49.3
NCOR2 (GeneID 9612),2,-0.736,67.3
NCOR2 (GeneID 9612),3,-0.646,69
EMG1 (GeneID 10436),1,-0.799,66
EMG1 (GeneID 10436),2,-1.21,57.9
EMG1 (GeneID 10436),3,-0.589,70.2
ARHGEF37 (GeneID 389337),1,2.23,126
ARHGEF37 (GeneID 389337),2,-1.47,52.7
ARHGEF37 (GeneID 389337),3,0.903,99.8
TOP1MT (GeneID 116447),1,0.0506,82.9
TOP1MT (GeneID 116447),2,-0.0613,80.7
TOP1MT (GeneID 116447),3,-0.13,79.3

Entries listed so far whose gene name begins with C or c (3):
Gene,siRNA no.,"total luciferase, z-score","total luciferase, % of control"
C12orf71 (GeneID 728858),1,-0.361,74.7
C12orf71 (GeneID 728858),2,0.315,88.2
C12orf71 (GeneID 728858),3,-0.254,76.8
